Results as given in PubChem BioAssay AID248 (DTP/NCI, 2004).
The list does not hold the whole screen: it covers a few groups of compounds. Other doses and runs of a compound may be missing. T/C is the treated group as % of the vehicle group. Some entries give survivors of the animals treated and no T/C: the source files T/C as zero there, which appears to mark a toxic dose or a test without result, not a measured value. Some survivor counts are full or nearly so, which does not show that the dose was tolerated: the source hardly ever lists a survival T/C far under the control, and the zero likely stands for such cases as well. Survivors were counted at the toxicity check, usually on the fifth day, unless a day is given; later deaths do not show. Schedule codes are those of the source, taken here to give the interval after Q, in days (D) or hours (H), and the number of doses after X. Some schedules carry Z or #; the key to these is not given. For survival time, the PubChem record calls one and a half times the control and up active, and a quarter to a half above the control has no call in these data; cut-offs in other NCI protocols can differ. Some doses were run more than once; the values are given in rising order. Some entries show no survivor count and are marked so; the dose need not have been tolerated. Some T/C values carry the count of animals alive at the toxicity check (mostly the fifth day); without a count or a note in brackets, all were alive then.

System: L1210 leukemia ip in BDF1 mice, survival T/C
Experiment: NCI In Vivo Anticancer Drug Screen. Data for tumor model L1210 Leukemia (intraperitoneal) in B6D2F1 (BDF1) mice
Details: T/C endpoint: mean survival time, higher T/C = longer survival
[1] = dose: 3.6 mg/kg/injection, schedule: Q01DX Z (ip), vehicle: saline
[2] = dose: 4.8 mg/kg/injection, schedule: Q01DX Z (ip), vehicle: saline
[3] = dose: 25.0 mg/kg/injection, schedule: Q01DX001 (ip), vehicle: saline
[4] = dose: 50.0 mg/kg/injection, schedule: Q01DX001 (ip), vehicle: saline

CN(CCCl)/N=N/c1nc[nH]c1C(N)=O
T/C (dose: 4.4 mg/kg/injection, schedule: Q01DX009 (ip), vehicle: saline with Tween-80): 104 % of control
T/C (dose: 6.6 mg/kg/injection, schedule: Q01DX009 (ip), vehicle: saline with Tween-80): 113 % of control
T/C (dose: 10.0 mg/kg/injection, schedule: Q01DX009 (ip), vehicle: saline with Tween-80): 119 % of control
T/C (dose: 12.5 mg/kg/injection, schedule: Q04DX002 (ip), vehicle: saline with Tween-80): 103 % of control
T/C (dose: 15.0 mg/kg/injection, schedule: Q01DX009 (ip), vehicle: saline with Tween-80): 136 % of control
T/C (dose: 22.5 mg/kg/injection, schedule: Q01DX009 (ip), vehicle: saline with Tween-80): 148 % of control
T/C (dose: 25.0 mg/kg/injection, schedule: Q04DX002 (ip), vehicle: saline with Tween-80): 114 % of control
T/C (dose: 44.0 mg/kg/injection, schedule: Q01DX001 (ip), vehicle: saline with Tween-80): 106 % of control
T/C (dose: 44.0 mg/kg/injection, schedule: Q04DX003 (ip), vehicle: saline with Tween-80): 142 % of control
T/C (dose: 50.0 mg/kg/injection, schedule: Q04DX002 (ip), vehicle: saline with Tween-80): 133 % of control
T/C (dose: 66.0 mg/kg/injection, schedule: Q01DX001 (ip), vehicle: saline with Tween-80): 114 % of control
T/C (dose: 66.0 mg/kg/injection, schedule: Q04DX003 (ip), vehicle: saline with Tween-80): 168 % of control
T/C (dose: 100.0 mg/kg/injection, schedule: Q01DX001 (ip), vehicle: saline with Tween-80): 128 % of control
T/C (dose: 100.0 mg/kg/injection, schedule: Q04DX002 (ip), vehicle: saline with Tween-80): 188 % of control
T/C (dose: 100.0 mg/kg/injection, schedule: Q04DX003 (ip), vehicle: saline with Tween-80): 227 % of control
T/C (dose: 150.0 mg/kg/injection, schedule: Q01DX001 (ip), vehicle: saline with Tween-80): 159 % of control
T/C (dose: 150.0 mg/kg/injection, schedule: Q04DX003 (ip), vehicle: saline with Tween-80): 209 % of control
T/C (dose: 200.0 mg/kg/injection, schedule: Q04DX002 (ip), vehicle: saline with Tween-80): 89 % of control
T/C (dose: 225.0 mg/kg/injection, schedule: Q01DX001 (ip), vehicle: saline with Tween-80): 164 % of control
survivor count (dose: 225.0 mg/kg/injection, schedule: Q04DX003 (ip), vehicle: saline with Tween-80): 10 of 10
survivor count (dose: 400.0 mg/kg/injection, schedule: Q04DX002 (ip), vehicle: saline with Tween-80): 3 of 3

CCOC(=O)Cc1ccc(N(CCCl)CCCl)cc1
T/C (dose: 75.0 mg/kg/injection, schedule: Q01DX001 (ip), vehicle: saline): 93 % of control
T/C (dose: 150.0 mg/kg/injection, schedule: Q01DX001 (ip), vehicle: saline): 104 % of control
T/C (dose: 300.0 mg/kg/injection, schedule: Q01DX001 (ip), vehicle: saline): 107 % of control

CN(C)P(C)(N)(Cl)N(C)C
T/C (dose: 100.0 mg/kg/injection, schedule: Q01DX001 (ip), vehicle: steroid suspending solution): 100 % of control [survivor count not shown]

O=C(O)COc1cccc(CN(CCCl)CCCl)c1
T/C (dose: 0.8 mg/kg/injection, schedule: Q01DX010 (ip), vehicle: propolene glycol): 122 % of control
T/C (dose: 0.8 mg/kg/injection, schedule: Q01DX Z (ip), vehicle: saline): 109 and 116 % of control
T/C (dose: 0.9 mg/kg/injection, schedule: Q01DX Z (ip), vehicle: saline): 122 % of control
T/C (dose: 1.02 mg/kg/injection, schedule: Q01DX009 (ip), vehicle: saline): 105 and 120 % of control
T/C (dose: 1.2 mg/kg/injection, schedule: Q01DX011 (ip), vehicle: propolene glycol): 128 % of control
T/C (dose: 1.2 mg/kg/injection, schedule: Q01DX Z (ip), vehicle: saline): 107 and 113 % of control
T/C (dose: 1.56 mg/kg/injection, schedule: Q01DX009 (ip), vehicle: saline): 100, 120, 133 % of control
T/C (dose: 1.8 mg/kg/injection, schedule: Q01DX010 (ip), vehicle: propolene glycol): 127 % of control
T/C (dose: 1.8 mg/kg/injection, schedule: Q01DX Z (ip), vehicle: saline): 114, 125, 128 % of control
T/C (dose: 2.34 mg/kg/injection, schedule: Q01DX009 (ip), vehicle: saline): 103 and 125 % of control
T/C (dose: 2.7 mg/kg/injection, schedule: Q01DX011 (ip), vehicle: propolene glycol): 110 % of control
T/C (dose: 2.7 mg/kg/injection, schedule: Q01DX Z (ip), vehicle: saline): 107 [5 of 6 alive] and 125 % of control
T/C (dose: 2.8 mg/kg/injection, schedule: Q01DX001 (ip), vehicle: saline): 104 % of control
T/C (dose: 3.12 mg/kg/injection, schedule: Q01DX009 (ip), vehicle: saline): 119 % of control
T/C [1]: 106 % of control
survivor count [1]: 6 of 6
T/C (dose: 4.1 mg/kg/injection, schedule: Q01DX001 (ip), vehicle: saline): 117 % of control
T/C [2]: 95 % of control
survivor count [2]: 6 of 6
T/C (dose: 6.2 mg/kg/injection, schedule: Q01DX001 (ip), vehicle: saline): 125 and 128 % of control
survivor count (dose: 6.25 mg/kg/injection, schedule: Q01DX009 (ip), vehicle: saline): 4 of 6
survivor count (dose: 7.2 mg/kg/injection, schedule: Q01DX Z (ip), vehicle: saline): 3 of 6
T/C (dose: 9.3 mg/kg/injection, schedule: Q01DX001 (ip), vehicle: saline): 109 % of control
T/C (dose: 12.5 mg/kg/injection, schedule: Q01DX001 (ip), vehicle: saline, evaluated on day 30): 120 % of control [5 of 6 alive]
T/C (dose: 12.5 mg/kg/injection, schedule: Q01DX001 (ip), vehicle: saline, run until all animals had died): 114 % of control
survivor count (dose: 12.5 mg/kg/injection, schedule: Q01DX009 (ip), vehicle: saline): 0 of 6
T/C [3]: 120 % of control
survivor count [3]: 3 of 4
survivor count (dose: 25.0 mg/kg/injection, schedule: Q01DX009 (ip), vehicle: saline): 0 of 6
T/C [4]: 122 % of control [5 of 6 alive]
survivor count [4]: 0 of 4
survivor count (dose: 50.0 mg/kg/injection, schedule: Q01DX009 (ip), vehicle: saline): 0 of 6

Clc1ccc(SC2CCCC2Cl)cc1 (stereo unspecified)
T/C (dose: 100.0 mg/kg/injection, schedule: Q01DX001 (ip), vehicle: carboxymethylcellulose (CMC)): 98 % of control
T/C (dose: 200.0 mg/kg/injection, schedule: Q01DX001 (ip), vehicle: carboxymethylcellulose (CMC)): 88 % of control
T/C (dose: 400.0 mg/kg/injection, schedule: Q01DX001 (ip), vehicle: carboxymethylcellulose (CMC)): 93 % of control

[N-]=[N+]=NCC(O)CN=[N+]=[N-] (stereo unspecified)
T/C (dose: 9.38 mg/kg/injection, schedule: Q01DX009 (ip), vehicle: saline with Tween-80): 97 % of control
T/C (dose: 18.75 mg/kg/injection, schedule: Q01DX009 (ip), vehicle: saline with Tween-80): 109 % of control
survivor count (dose: 37.5 mg/kg/injection, schedule: Q01DX009 (ip), vehicle: saline with Tween-80): 5 of 6

BrCCN1CCNCC1
T/C (dose: 100.0 mg/kg/injection, schedule: Q01DX001 (ip), vehicle: saline): 107 % of control
T/C (dose: 200.0 mg/kg/injection, schedule: Q01DX001 (ip), vehicle: saline): 96 % of control [3 of 4 alive]
survivor count (dose: 400.0 mg/kg/injection, schedule: Q01DX001 (ip), vehicle: saline): 0 of 4
